{"sequences": {"note": "Amino acid sequences for entries named in this document (tags omitted). A change or cut given only in a name is not applied to a line headed by its entry.", "UniProt P41145": "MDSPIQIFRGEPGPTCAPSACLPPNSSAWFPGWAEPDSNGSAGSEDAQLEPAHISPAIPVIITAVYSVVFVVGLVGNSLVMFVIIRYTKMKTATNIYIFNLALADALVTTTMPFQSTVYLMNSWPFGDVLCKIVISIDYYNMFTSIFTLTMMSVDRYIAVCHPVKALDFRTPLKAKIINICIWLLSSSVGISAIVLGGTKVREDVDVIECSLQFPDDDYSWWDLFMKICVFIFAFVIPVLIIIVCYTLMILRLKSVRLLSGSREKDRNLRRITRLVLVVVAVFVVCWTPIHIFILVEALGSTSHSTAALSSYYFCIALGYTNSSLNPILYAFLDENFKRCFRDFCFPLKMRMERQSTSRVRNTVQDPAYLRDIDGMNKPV", "UniProt P41143, whole entry": "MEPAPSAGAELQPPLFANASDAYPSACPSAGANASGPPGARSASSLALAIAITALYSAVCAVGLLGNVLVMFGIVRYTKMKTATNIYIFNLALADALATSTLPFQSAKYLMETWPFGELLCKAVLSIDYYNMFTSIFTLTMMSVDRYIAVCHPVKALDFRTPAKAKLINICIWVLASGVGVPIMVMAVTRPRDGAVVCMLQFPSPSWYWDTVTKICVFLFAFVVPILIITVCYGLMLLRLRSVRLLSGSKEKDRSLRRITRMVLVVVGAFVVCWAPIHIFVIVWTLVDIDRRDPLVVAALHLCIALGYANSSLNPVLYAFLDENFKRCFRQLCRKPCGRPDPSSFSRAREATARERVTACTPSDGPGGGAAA"}, "source": "patent US20230096978A1", "about": "“MOR RECEPTOR AGONIST COMPOUND, PREPARATION METHOD THEREFOR, AND USE THEREOF” (CHENGDU EASTON BIOPHARMACEUTICALS CO., LTD., priority 2020, published 2023)", "key": {"[1]": {"target": "T1, KOR(Kappa opioid receptor) (Homo sapiens, UniProt P41145)", "T1 construct": "expressed in transfected cells", "experiment": "cAMP agonistic activity assay, KOR stably transfected cell line", "format": "cell-based", "conditions": "ratio of EC50 to TRV130", "experimental": "(§1) 1. Test purpose: to detect the agonistic activity of compound samples utilizing MOR (Mu opioid Receptor), KOR(Kappa opioid receptor), and DOR (Delta Opioid Receptor) stably transfected cell lines and using the established cAMP assay detection platform.\n(§2) a. All samples were dissolved with DMSO to a storage concentration of 30 mM.\n(§3) b. A sample dilution sequence was prepared on a 384-well LDV plate. The first concentration point is 6 mM, with a 3.162-fold serial dilution and a total of 11 concentration points.\n(§4) c. The sample dilution sequence was transferred to an test plate (Corning-3824) using the Echo machine, corresponding to transfer of 50 nL per well.\n(§5) d. 50 nL of HPE or ZPE was transferred to the corresponding location of the test plate using the Echo machine.\n(§6) 2.2 Test operation of cAMP agonistic activity detection\n(§7) a. Assay buffer and stimulation buffer (STB) required for the test were formulated.\n(§8) b. 5 μL of STB was firstly added to each well of the test plate (with 50 nL of compound already in the well), and then 5 μL of cell suspension was added thereto.\n(§9) c. The test plate was incubated in a constant temperature incubator at 37° C.\n(§10) d. A standard concentration curve of cAMP was created. The first concentration point was 2848 nM, with a 4-fold serial dilution and a total of 16 detection concentrations, and each concentration point was in triplicate.\n(§11) e. cAMP detection reagent (Cisbio #62AM4PEJ) was added to the sample test plate and cAMP standard concentration test plate. 5 μL of D2 reagent was added first, and then 5 μL of Cryptate reagent was added.\n(§12) f. The test plates were read on the Envision after being left for 60 minutes at room temperature."}, "[2]": {"target": "T2, DOR (Delta Opioid Receptor) (Homo sapiens, UniProt P41143)", "T2 construct": "expressed in transfected cells", "experiment": "cAMP agonistic activity assay, DOR stably transfected cell line", "format": "cell-based", "conditions": "ratio of EC50 to TRV130", "experimental": "as §1, §2, §3, §4, §5, §6, §7, §8, §9, §10, §11, §12"}}, "note": "Some of these results come from one statement about several compounds together.", "data": [{"smiles": "Fc1ccc([C@]2(CCNCc3ccccc3-c3ccncc3)CCOC3(CCCC3)C2)cc1", "note": "[Example 4]", "values": [{"measurement": "EC50 against κ receptor relative to that of TRV130", "setting": "[1]", "result": "≥ 10", "unit": "times"}, {"measurement": "EC50 against δ receptor relative to that of TRV130", "setting": "[2]", "result": "≥ 10", "unit": "times"}]}, {"smiles": "c1ccc([C@]2(CCNCc3coc4ccc(O[C@@H]5CCOC5)cc34)CCOC3(CCCC3)C2)nc1", "note": "[Example 3]", "values": [{"measurement": "EC50 against κ receptor relative to that of TRV130", "setting": "[1]", "result": "≥ 10", "unit": "times"}, {"measurement": "EC50 against δ receptor relative to that of TRV130", "setting": "[2]", "result": "≥ 10", "unit": "times"}]}, {"smiles": "COc1ccc2occ(CNCC[C@@]3(c4ccccn4)CCOC4(CCCC4)C3)c2c1", "note": "[Example 1]", "values": [{"measurement": "EC50 against κ receptor relative to that of TRV130", "setting": "[1]", "result": "≥ 10", "unit": "times"}, {"measurement": "EC50 against δ receptor relative to that of TRV130", "setting": "[2]", "result": "≥ 10", "unit": "times"}]}]}
